Paper doi:10.1101/2020.03.14.989954
Results are given in words; binding and its absence hold for the method and conditions named. For some of these results: In cells and extracts the contact can be indirect. Some entries that bind do so weakly or less than the wild type. For some of these results: Tags and fused reporters may be left off the sequences shown. Blank lines part the entries; values can stand above or below the molecule they belong to.

Chains of the proteins cited; added tags and fusions are not shown.
UniProt Q92963: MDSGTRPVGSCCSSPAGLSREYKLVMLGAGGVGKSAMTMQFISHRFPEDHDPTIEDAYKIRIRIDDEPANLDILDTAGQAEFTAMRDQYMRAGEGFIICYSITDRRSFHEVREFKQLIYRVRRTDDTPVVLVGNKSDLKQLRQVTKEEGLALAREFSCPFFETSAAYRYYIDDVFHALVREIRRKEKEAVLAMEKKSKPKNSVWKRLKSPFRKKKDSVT

Legend:
GST-LZTR1 = target: T1, GST-LZTR1 (UniProt Q8N653); assay: pull-down
T1 sequence: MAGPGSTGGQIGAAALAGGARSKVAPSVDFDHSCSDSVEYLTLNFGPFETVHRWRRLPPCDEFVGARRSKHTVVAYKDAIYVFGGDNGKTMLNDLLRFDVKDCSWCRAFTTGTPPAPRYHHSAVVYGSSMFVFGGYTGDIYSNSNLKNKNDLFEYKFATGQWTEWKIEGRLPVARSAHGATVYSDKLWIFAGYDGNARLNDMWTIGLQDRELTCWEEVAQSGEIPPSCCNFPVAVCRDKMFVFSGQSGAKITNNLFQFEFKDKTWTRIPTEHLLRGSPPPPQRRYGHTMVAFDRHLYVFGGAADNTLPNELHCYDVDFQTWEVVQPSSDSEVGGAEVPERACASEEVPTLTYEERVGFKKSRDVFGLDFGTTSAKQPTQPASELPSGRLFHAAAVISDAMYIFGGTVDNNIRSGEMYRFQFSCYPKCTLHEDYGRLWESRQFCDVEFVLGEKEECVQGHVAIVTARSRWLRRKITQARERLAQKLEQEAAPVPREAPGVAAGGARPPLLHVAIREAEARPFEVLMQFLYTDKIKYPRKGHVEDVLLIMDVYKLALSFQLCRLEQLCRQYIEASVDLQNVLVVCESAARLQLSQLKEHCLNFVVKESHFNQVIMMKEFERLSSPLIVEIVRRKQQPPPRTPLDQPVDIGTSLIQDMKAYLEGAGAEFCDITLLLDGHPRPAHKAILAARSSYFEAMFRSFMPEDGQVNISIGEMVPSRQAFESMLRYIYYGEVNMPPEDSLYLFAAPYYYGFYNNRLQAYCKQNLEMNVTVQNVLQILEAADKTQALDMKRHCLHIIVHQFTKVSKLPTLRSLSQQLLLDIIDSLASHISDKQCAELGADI

FLAG-LZTR1 = target: T2, FLAG-LZTR1 (UniProt Q8N653); assay: co-IP
T2 sequence: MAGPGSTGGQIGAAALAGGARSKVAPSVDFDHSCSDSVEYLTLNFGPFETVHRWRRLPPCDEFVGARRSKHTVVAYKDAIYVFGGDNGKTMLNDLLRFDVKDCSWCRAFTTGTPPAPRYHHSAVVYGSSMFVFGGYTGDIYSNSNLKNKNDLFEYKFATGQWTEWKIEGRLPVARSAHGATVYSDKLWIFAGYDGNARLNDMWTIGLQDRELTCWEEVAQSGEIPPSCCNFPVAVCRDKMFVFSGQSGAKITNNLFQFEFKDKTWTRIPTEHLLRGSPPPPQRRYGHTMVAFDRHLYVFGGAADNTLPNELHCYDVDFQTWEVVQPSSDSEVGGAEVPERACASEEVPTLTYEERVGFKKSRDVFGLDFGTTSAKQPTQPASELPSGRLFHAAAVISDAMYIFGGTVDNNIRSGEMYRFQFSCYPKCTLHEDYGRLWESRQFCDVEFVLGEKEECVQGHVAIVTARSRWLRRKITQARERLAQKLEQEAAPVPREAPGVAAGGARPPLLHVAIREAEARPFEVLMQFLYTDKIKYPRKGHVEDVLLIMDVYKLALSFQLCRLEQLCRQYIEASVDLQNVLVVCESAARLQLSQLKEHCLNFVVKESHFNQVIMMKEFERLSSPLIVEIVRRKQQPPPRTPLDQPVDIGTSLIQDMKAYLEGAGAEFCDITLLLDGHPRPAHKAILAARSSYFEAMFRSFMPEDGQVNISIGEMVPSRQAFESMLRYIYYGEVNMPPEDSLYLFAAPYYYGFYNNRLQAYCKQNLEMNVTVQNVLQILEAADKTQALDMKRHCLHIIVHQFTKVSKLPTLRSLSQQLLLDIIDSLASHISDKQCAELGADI

[1] = target: T3, endogenous LZTR1 (U87-MG) (human (endogenous in U87-MG)) (UniProt Q8N653); assay: co-IP
T3 sequence: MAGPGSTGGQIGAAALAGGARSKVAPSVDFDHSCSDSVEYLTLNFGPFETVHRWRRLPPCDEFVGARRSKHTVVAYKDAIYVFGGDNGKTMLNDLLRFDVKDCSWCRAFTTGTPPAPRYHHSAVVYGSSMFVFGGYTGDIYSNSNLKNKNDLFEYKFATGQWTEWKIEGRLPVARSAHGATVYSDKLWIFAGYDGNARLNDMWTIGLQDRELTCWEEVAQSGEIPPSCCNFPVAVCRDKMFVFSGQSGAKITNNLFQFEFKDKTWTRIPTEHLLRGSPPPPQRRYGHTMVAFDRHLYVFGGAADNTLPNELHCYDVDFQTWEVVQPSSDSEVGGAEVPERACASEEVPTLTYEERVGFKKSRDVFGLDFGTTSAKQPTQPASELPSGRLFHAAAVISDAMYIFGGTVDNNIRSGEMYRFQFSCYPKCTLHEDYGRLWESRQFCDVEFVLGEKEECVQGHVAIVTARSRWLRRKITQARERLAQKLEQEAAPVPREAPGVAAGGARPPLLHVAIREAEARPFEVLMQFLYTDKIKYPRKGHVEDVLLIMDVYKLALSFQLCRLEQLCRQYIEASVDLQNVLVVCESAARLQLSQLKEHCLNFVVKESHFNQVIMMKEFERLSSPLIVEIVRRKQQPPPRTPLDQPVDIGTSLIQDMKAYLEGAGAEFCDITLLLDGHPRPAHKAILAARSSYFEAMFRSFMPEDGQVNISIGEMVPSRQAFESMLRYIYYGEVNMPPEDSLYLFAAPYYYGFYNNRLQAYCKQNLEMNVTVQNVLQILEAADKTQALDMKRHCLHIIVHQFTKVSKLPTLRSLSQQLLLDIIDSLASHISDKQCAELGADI

[2] = target: T4, LZTR1, wild type, full length (transfected, Figs 1H, 3B, 3E, 3G, 4B), Q8N653; assay: co-IP; settings: remark: other sources report otherwise
T4 chain: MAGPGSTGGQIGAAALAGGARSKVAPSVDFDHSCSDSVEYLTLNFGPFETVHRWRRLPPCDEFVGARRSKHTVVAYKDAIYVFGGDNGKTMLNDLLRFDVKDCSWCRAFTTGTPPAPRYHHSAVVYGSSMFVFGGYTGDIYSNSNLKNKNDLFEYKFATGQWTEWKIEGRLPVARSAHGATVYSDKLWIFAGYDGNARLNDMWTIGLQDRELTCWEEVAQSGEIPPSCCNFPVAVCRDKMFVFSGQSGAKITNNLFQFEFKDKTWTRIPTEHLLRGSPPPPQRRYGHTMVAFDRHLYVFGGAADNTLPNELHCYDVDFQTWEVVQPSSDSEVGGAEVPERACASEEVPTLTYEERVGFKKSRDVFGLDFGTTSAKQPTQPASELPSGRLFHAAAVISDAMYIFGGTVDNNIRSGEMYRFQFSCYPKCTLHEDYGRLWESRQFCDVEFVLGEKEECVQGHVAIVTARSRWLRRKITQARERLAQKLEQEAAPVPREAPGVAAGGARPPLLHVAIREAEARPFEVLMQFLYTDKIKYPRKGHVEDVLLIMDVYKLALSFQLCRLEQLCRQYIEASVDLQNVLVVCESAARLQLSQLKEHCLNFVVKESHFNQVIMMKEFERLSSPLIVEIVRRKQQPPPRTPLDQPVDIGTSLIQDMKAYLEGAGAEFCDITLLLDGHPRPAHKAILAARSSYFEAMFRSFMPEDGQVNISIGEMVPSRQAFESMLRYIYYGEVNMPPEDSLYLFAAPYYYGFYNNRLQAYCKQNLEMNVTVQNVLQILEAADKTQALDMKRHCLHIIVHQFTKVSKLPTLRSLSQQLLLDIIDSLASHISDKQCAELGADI

[3] = target: endogenous RIT1 (U87-MG) (human (endogenous in U87-MG)) (UniProt Q92963); assay: co-IP
FLAG-LZTR1, Q8N653 = target: T5, FLAG-LZTR1, Q8N653; assay: co-IP; settings: remark: other sources report otherwise
T5 chain: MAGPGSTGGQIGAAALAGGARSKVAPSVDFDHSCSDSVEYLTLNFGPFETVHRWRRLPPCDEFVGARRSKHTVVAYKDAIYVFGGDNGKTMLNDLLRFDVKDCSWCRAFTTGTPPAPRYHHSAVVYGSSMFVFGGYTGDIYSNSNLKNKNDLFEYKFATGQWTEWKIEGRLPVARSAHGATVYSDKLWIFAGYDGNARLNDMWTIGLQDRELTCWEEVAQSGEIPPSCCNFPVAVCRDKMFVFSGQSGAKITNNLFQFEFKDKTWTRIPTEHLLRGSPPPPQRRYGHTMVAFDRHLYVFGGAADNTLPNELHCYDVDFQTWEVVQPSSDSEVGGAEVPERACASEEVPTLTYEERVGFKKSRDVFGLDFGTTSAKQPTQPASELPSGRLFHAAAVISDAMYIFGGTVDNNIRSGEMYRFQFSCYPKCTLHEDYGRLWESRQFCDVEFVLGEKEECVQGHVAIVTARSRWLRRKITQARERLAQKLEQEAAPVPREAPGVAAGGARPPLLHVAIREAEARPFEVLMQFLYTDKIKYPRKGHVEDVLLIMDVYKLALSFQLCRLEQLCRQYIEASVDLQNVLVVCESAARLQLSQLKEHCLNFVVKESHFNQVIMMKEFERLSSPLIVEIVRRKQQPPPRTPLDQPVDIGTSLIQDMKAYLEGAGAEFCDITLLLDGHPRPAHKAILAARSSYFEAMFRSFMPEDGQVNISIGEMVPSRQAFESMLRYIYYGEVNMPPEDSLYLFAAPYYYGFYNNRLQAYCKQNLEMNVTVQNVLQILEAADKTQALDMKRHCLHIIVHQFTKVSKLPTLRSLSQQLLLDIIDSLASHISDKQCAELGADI

Molecule: His-RIT1 (from UniProt Q92963 1-219)
- binding (GST-LZTR1): binds

Molecule: endogenous RIT1 (293T) (from UniProt Q92963 1-219)
- binding (FLAG-LZTR1): binds

B2: endogenous LZTR1 (U87-MG) (protein, UniProt Q8N653 1-840)
chain: MAGPGSTGGQIGAAALAGGARSKVAPSVDFDHSCSDSVEYLTLNFGPFETVHRWRRLPPCDEFVGARRSKHTVVAYKDAIYVFGGDNGKTMLNDLLRFDVKDCSWCRAFTTGTPPAPRYHHSAVVYGSSMFVFGGYTGDIYSNSNLKNKNDLFEYKFATGQWTEWKIEGRLPVARSAHGATVYSDKLWIFAGYDGNARLNDMWTIGLQDRELTCWEEVAQSGEIPPSCCNFPVAVCRDKMFVFSGQSGAKITNNLFQFEFKDKTWTRIPTEHLLRGSPPPPQRRYGHTMVAFDRHLYVFGGAADNTLPNELHCYDVDFQTWEVVQPSSDSEVGGAEVPERACASEEVPTLTYEERVGFKKSRDVFGLDFGTTSAKQPTQPASELPSGRLFHAAAVISDAMYIFGGTVDNNIRSGEMYRFQFSCYPKCTLHEDYGRLWESRQFCDVEFVLGEKEECVQGHVAIVTARSRWLRRKITQARERLAQKLEQEAAPVPREAPGVAAGGARPPLLHVAIREAEARPFEVLMQFLYTDKIKYPRKGHVEDVLLIMDVYKLALSFQLCRLEQLCRQYIEASVDLQNVLVVCESAARLQLSQLKEHCLNFVVKESHFNQVIMMKEFERLSSPLIVEIVRRKQQPPPRTPLDQPVDIGTSLIQDMKAYLEGAGAEFCDITLLLDGHPRPAHKAILAARSSYFEAMFRSFMPEDGQVNISIGEMVPSRQAFESMLRYIYYGEVNMPPEDSLYLFAAPYYYGFYNNRLQAYCKQNLEMNVTVQNVLQILEAADKTQALDMKRHCLHIIVHQFTKVSKLPTLRSLSQQLLLDIIDSLASHISDKQCAELGADI
- binding [3]: binds

B3: ARAF, P10398 1-606 (protein)
chain: MEPPRGPPANGAEPSRAVGTVKVYLPNKQRTVVTVRDGMSVYDSLDKALKVRGLNQDCCVVYRLIKGRKTVTAWDTAIAPLDGEELIVEVLEDVPLTMHNFVRKTFFSLAFCDFCLKFLFHGFRCQTCGYKFHQHCSSKVPTVCVDMSTNRQQFYHSVQDLSGGSRQHEAPSNRPLNELLTPQGPSPRTQHCDPEHFPFPAPANAPLQRIRSTSTPNVHMVSTTAPMDSNLIQLTGQSFSTDAAGSRGGSDGTPRGSPSPASVSSGRKSPHSKSPAEQRERKSLADDKKKVKNLGYRDSGYYWEVPPSEVQLLKRIGTGSFGTVFRGRWHGDVAVKVLKVSQPTAEQAQAFKNEMQVLRKTRHVNILLFMGFMTRPGFAIITQWCEGSSLYHHLHVADTRFDMVQLIDVARQTAQGMDYLHAKNIIHRDLKSNNIFLHEGLTVKIGDFGLATVKTRWSGAQPLEQPSGSVLWMAAEVIRMQDPNPYSFQSDVYAYGVVLYELMTGSLPYSHIGCRDQIIFMVGRGYLSPDLSKISSNCPKAMRRLLSDCLKFQREERPLFPQILATIELLQRSLPKIERSASEPSLHRTQADELPACLLSAARLVP
- binding (FLAG-LZTR1, Q8N653): no binding

More lines, now with the values ahead:

- binding (FLAG-LZTR1): no binding
Molecule: SOS1 (from UniProt Q07889 1-1333)

- binding [1]: binds
Molecule: endogenous RIT1 (U87-MG) (from UniProt Q92963 1-219)

- binding [2]: binds
B1: LZTR1, wild type, full length (transfected, Figs 1H, 3B, 3E, 3G, 4B), Q8N653 1-840 (protein)
chain: MAGPGSTGGQIGAAALAGGARSKVAPSVDFDHSCSDSVEYLTLNFGPFETVHRWRRLPPCDEFVGARRSKHTVVAYKDAIYVFGGDNGKTMLNDLLRFDVKDCSWCRAFTTGTPPAPRYHHSAVVYGSSMFVFGGYTGDIYSNSNLKNKNDLFEYKFATGQWTEWKIEGRLPVARSAHGATVYSDKLWIFAGYDGNARLNDMWTIGLQDRELTCWEEVAQSGEIPPSCCNFPVAVCRDKMFVFSGQSGAKITNNLFQFEFKDKTWTRIPTEHLLRGSPPPPQRRYGHTMVAFDRHLYVFGGAADNTLPNELHCYDVDFQTWEVVQPSSDSEVGGAEVPERACASEEVPTLTYEERVGFKKSRDVFGLDFGTTSAKQPTQPASELPSGRLFHAAAVISDAMYIFGGTVDNNIRSGEMYRFQFSCYPKCTLHEDYGRLWESRQFCDVEFVLGEKEECVQGHVAIVTARSRWLRRKITQARERLAQKLEQEAAPVPREAPGVAAGGARPPLLHVAIREAEARPFEVLMQFLYTDKIKYPRKGHVEDVLLIMDVYKLALSFQLCRLEQLCRQYIEASVDLQNVLVVCESAARLQLSQLKEHCLNFVVKESHFNQVIMMKEFERLSSPLIVEIVRRKQQPPPRTPLDQPVDIGTSLIQDMKAYLEGAGAEFCDITLLLDGHPRPAHKAILAARSSYFEAMFRSFMPEDGQVNISIGEMVPSRQAFESMLRYIYYGEVNMPPEDSLYLFAAPYYYGFYNNRLQAYCKQNLEMNVTVQNVLQILEAADKTQALDMKRHCLHIIVHQFTKVSKLPTLRSLSQQLLLDIIDSLASHISDKQCAELGADI
